PubChem BioAssay AID1159584, Peter MacCallum Cancer Centre – 2016
This is an unselected part of about 18,000 reagents. Further read-outs or replicates are left out here. Reagent sequences are not shown. Not given: the amount of reagent, the time to read-out.

Test: 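Genes whose loss is lethal only together with E-cadherin loss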 (primary screen)
System: human MCF10A breast epithelial cells, parental and CDH1-null
Reagent: siRNA against human genes
Detection: 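ATP luminescence (CellTiter-Glo) viability per line relative to mean mock wells over all plates, and the ratio of CDH1-null to parental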
Direction: CDH1-null / parental viability ratio: higher = CDH1-null cells survive relatively better than parental

Against KCNV2, the entry reads CDH1-null / parental viability ratio 1.33.
PSMD9 (proteasome 26S subunit, non-ATPase 9) scored CDH1-null / parental viability ratio 1.09.
With knock-down of SHISA4 (shisa family member 4), the record shows CDH1-null / parental viability ratio 0.86.
After knock-down of ARMC1 (armadillo repeat containing 1), the screen gave CDH1-null / parental viability ratio 0.96.
After knock-down of WFDC5 (WAP four-disulfide core domain 5), the screen gave CDH1-null / parental viability ratio 1.16.
After knock-down of ZNF766 (zinc finger protein 766) the results were CDH1-null / parental viability ratio 0.95.
For RFLNB (refilin B), the entry reads CDH1-null / parental viability ratio 0.92.
PHC2 (polyhomeotic homolog 2) gave CDH1-null / parental viability ratio 0.75.
For ATP1B4 (ATPase Na+/K+ transporting family member beta 4), the values are CDH1-null / parental viability ratio 0.92.
For ZNF750 (zinc finger protein 750), the entry reads CDH1-null / parental viability ratio 0.85.
Knock-down of CDSN (corneodesmosin) gave: CDH1-null / parental viability ratio 0.91.
Silencing of C1QL3 (complement C1q like 3) gave: CDH1-null / parental viability ratio 0.95.
Against OR4S2 (olfactory receptor family 4 subfamily S member 2), the entry reads CDH1-null / parental viability ratio 1.2.
PPP2R3A (protein phosphatase 2 regulatory subunit B''alpha) showed CDH1-null / parental viability ratio 1.43.
ZIC1 (Zic family zinc finger 1) gave CDH1-null / parental viability ratio 1.15.
After knock-down of FFAR1 (free fatty acid receptor 1), the screen gave CDH1-null / parental viability ratio 1.38.
Depletion of WWTR1 (WW domain containing transcription regulator 1) gave: CDH1-null / parental viability ratio 1.02.
GK (glycerol kinase) gave CDH1-null / parental viability ratio 1.
Knock-down of DOCK3 (dedicator of cytokinesis 3) resulted in: CDH1-null / parental viability ratio 1.22.
For DCK (deoxycytidine kinase) the deposit lists CDH1-null / parental viability ratio 0.55.
BRD1 (bromodomain containing 1) scored CDH1-null / parental viability ratio 1.03.
With knock-down of C8orf74 (chromosome 8 open reading frame 74) the results were CDH1-null / parental viability ratio 1.23.
BIRC7 (baculoviral IAP repeat containing 7) gave CDH1-null / parental viability ratio 1.02.
For PMPCB (peptidase, mitochondrial processing subunit beta) the deposit lists CDH1-null / parental viability ratio 1.25.
With knock-down of REPS1 (RALBP1 associated Eps domain containing 1), the screen gave CDH1-null / parental viability ratio 0.9.
Depletion of MCUB resulted in: CDH1-null / parental viability ratio 0.89.
Against TMEM225 (transmembrane protein 225) the deposit lists CDH1-null / parental viability ratio 0.87.
Against COX20 (cytochrome c oxidase assembly factor COX20), the entry reads CDH1-null / parental viability ratio 1.29.
Against TIMM50 (translocase of inner mitochondrial membrane 50) the deposit lists CDH1-null / parental viability ratio 1.26.
CFAP43 (cilia and flagella associated protein 43) scored CDH1-null / parental viability ratio 0.6.
PPA1 (inorganic pyrophosphatase 1) gave CDH1-null / parental viability ratio 0.93.
For UFM1 (ubiquitin fold modifier 1) the deposit lists CDH1-null / parental viability ratio 1.44.
After knock-down of PI4KA (phosphatidylinositol 4-kinase alpha) the results were CDH1-null / parental viability ratio 0.83.
Knock-down of SMCR8 (SMCR8-C9orf72 complex subunit) came out at: CDH1-null / parental viability ratio 0.73.
Silencing of DACH1 (dachshund family transcription factor 1) resulted in: CDH1-null / parental viability ratio 1.32.
With knock-down of COX4I2 (cytochrome c oxidase subunit 4I2), the record shows CDH1-null / parental viability ratio 0.98.
For CSNK1A1L (casein kinase 1 alpha 1 like), the entry reads CDH1-null / parental viability ratio 0.82.
Knock-down of PLIN3 (perilipin 3) resulted in: CDH1-null / parental viability ratio 0.96.
With knock-down of SLC46A1, the record shows CDH1-null / parental viability ratio 0.89.
For AKAP9 (A-kinase anchoring protein 9) the deposit lists CDH1-null / parental viability ratio 1.02.
PISD (phosphatidylserine decarboxylase) showed CDH1-null / parental viability ratio 0.86.
Knock-down of TRIP12 (thyroid hormone receptor interactor 12) came out at: CDH1-null / parental viability ratio 1.01.
Against PCIF1 (phosphorylated CTD interacting factor 1) the deposit lists CDH1-null / parental viability ratio 0.76.
After knock-down of DOK1 (docking protein 1) the results were CDH1-null / parental viability ratio 1.53.
With knock-down of PDLIM7 (PDZ and LIM domain 7) the results were CDH1-null / parental viability ratio 0.98.

Laid out differently: 5 of the entries above.
{"gene":"AKAP9 (A-kinase anchoring protein 9)","CDH1-null / parental viability ratio":1.02}
{"gene":"PISD (phosphatidylserine decarboxylase)","CDH1-null / parental viability ratio":0.86}
{"gene":"TRIP12 (thyroid hormone receptor interactor 12)","CDH1-null / parental viability ratio":1.01}
{"gene":"PCIF1 (phosphorylated CTD interacting factor 1)","CDH1-null / parental viability ratio":0.76}
{"gene":"DOK1 (docking protein 1)","CDH1-null / parental viability ratio":1.53}
